Reference: US9630991B2, “βsheet tapes ribbons in tissue engineering” (University of Leeds, priority 2002, dated 2017)
Some results were stated once for a whole list of compounds, not compound by compound. Where a SMILES comes first, the peptide text is derived from it. [ ]: non-standard residue; d: D form. Orn = NCCC[C@H](N)C(=O)O

Test: Self-assembly and gel formation in physiological solution / cell media
Assay type: physicochemical
Conditions: physiological conditions
Description: A large number (dozens) of systematically varied peptides (typically 7-30 residues long) have been studied for soluble polymer and gel formation in cell media. […] Only peptides with a approximate net +2 or −2 charge per peptide at physiological pH=7.5, were able to form soluble polymers and gel cell media (The amount of net charge necessary per peptide to keep its polymers soluble in cell media will vary depending on the overall surface properties and solubility of the peptide tapes it forms). […] These peptides retained a predominantly monomeric state and their solutions in cell media were fluids up to around 40 mg/ml peptide concentration.
The rationally designed peptide P11-8 (Tables 1A and 1C) was dissolved in 145 mM NaCl, pH˜7.5 aqueous solution (the ionic strength and pH values of the solution were similar to those present in cell culture medium) or it was added directly in cell culture medium.
The fibrils of P11-8 entwined partly with each other forming a three dimensional network and turned the peptide solution in cell media into a homogeneous self-supporting gel at peptide concentration higher than 15 mg/ml.
The gel could be temporarily broken by mechanical agitation. The time it took the gel to reform depended on the peptide concentration, ranging from seconds for a 35 mg/ml peptide gel, to hours for a 15 mg/ml peptide gel.

Row | Compound | peptide concentration for self-supporting gel
1 | CC(=O)N[C@@H](CCC(N)=O)C(=O)N[C@@H](CCC(N)=O)C(=O)N[C@@H](CCCNC(=N)N)C(=O)N[C@@H](Cc1ccccc1)C(=O)N[C@@H](CCCN)C(=O)N[C@@H](Cc1c[nH]c2ccccc12)C(=O)N[C@@H](CCCN)C(=O)N[C@@H](Cc1ccccc1)C(=O)N[C@@H](CCC(=O)O)C(=O)N[C@@H](CCC(N)=O)C(=O)N[C@@H](CCC(N)=O)C(N)=O [Peptide P11-8, CH3CO-Q-Q-R-F-O-W-O-F-E-Q-Q-NH2] (Ac-QQRF[Orn]W[Orn]FEQQ-NH2) | above 10 mg·ml^−1
2 | CC(=O)N[C@@H](CO)C(=O)N[C@@H](CO)C(=O)N[C@@H](CCCNC(=N)N)C(=O)N[C@@H](Cc1ccccc1)C(=O)N[C@@H](CCC(=O)O)C(=O)N[C@@H](Cc1c[nH]c2ccccc12)C(=O)N[C@@H](CCC(=O)O)C(=O)N[C@@H](Cc1ccccc1)C(=O)N[C@@H](CCC(=O)O)C(=O)N[C@@H](CO)C(=O)N[C@@H](CO)C(N)=O [Peptide P11-9, CH3CO-S-S-R-F-E-W-E-F-E-S-S-NH2] (Ac-SSRFEWEFESS-NH2) | above 10 mg·ml^−1
3 | CC(=O)N[C@@H](CO)C(=O)N[C@@H](CO)C(=O)N[C@@H](CCCNC(=N)N)C(=O)N[C@@H](Cc1ccccc1)C(=O)N[C@@H](CCCN)C(=O)N[C@@H](Cc1c[nH]c2ccccc12)C(=O)N[C@@H](CCCN)C(=O)N[C@@H](Cc1ccccc1)C(=O)N[C@@H](CCC(=O)O)C(=O)N[C@@H](CO)C(=O)N[C@@H](CO)C(N)=O [Peptide P11-12, CH3CO-S-S-R-F-O-W-O-F-E-S-S-NH2] (Ac-SSRF[Orn]W[Orn]FESS-NH2) | above 10 mg·ml^−1
4 | CC(=O)N[C@@H](CC(N)=O)C(=O)N[C@@H](CC(N)=O)C(=O)N[C@@H](CCCNC(=N)N)C(=O)N[C@@H](Cc1ccccc1)C(=O)N[C@@H](CCC(=O)O)C(=O)N[C@@H](Cc1c[nH]c2ccccc12)C(=O)N[C@@H](CCC(=O)O)C(=O)N[C@@H](Cc1ccccc1)C(=O)N[C@@H](CCC(=O)O)C(=O)N[C@@H](CC(N)=O)C(=O)N[C@@H](CC(N)=O)C(N)=O [Peptide P11-15, CH3CO-N-N-R-F-E-W-E-F-E-N-N-NH2] (Ac-NNRFEWEFENN-NH2) | above 10 mg·ml^−1
5 | CC(=O)N[C@@H](CC(N)=O)C(=O)N[C@@H](CC(N)=O)C(=O)N[C@@H](CCCNC(=N)N)C(=O)N[C@@H](Cc1ccccc1)C(=O)N[C@@H](CCCN)C(=O)N[C@@H](Cc1c[nH]c2ccccc12)C(=O)N[C@@H](CCCN)C(=O)N[C@@H](Cc1ccccc1)C(=O)N[C@@H](CCC(=O)O)C(=O)N[C@@H](CC(N)=O)C(=O)N[C@@H](CC(N)=O)C(N)=O [Peptide P11-16, CH3CO-N-N-R-F-O-W-O-F-E-N-N-NH2] (Ac-NNRF[Orn]W[Orn]FENN-NH2) | above 10 mg·ml^−1
6 | CC(=O)N[C@H](C(=O)N[C@H](C(=O)N[C@@H](CCCNC(=N)N)C(=O)N[C@@H](Cc1ccccc1)C(=O)N[C@@H](CCC(=O)O)C(=O)N[C@@H](Cc1c[nH]c2ccccc12)C(=O)N[C@@H](CCC(=O)O)C(=O)N[C@@H](Cc1ccccc1)C(=O)N[C@@H](CCC(=O)O)C(=O)N[C@H](C(=O)N[C@H](C(N)=O)[C@@H](C)O)[C@@H](C)O)[C@@H](C)O)[C@@H](C)O [Peptide P11-17, CH3CO-T-T-R-F-E-W-E-F-E-T-T-NH2] (Ac-TTRFEWEFETT-NH2) | above 10 mg·ml^−1
7 | CC(=O)N[C@H](C(=O)N[C@H](C(=O)N[C@@H](CCCNC(=N)N)C(=O)N[C@@H](Cc1ccccc1)C(=O)N[C@@H](CCCN)C(=O)N[C@@H](Cc1c[nH]c2ccccc12)C(=O)N[C@@H](CCCN)C(=O)N[C@@H](Cc1ccccc1)C(=O)N[C@@H](CCC(=O)O)C(=O)N[C@H](C(=O)N[C@H](C(N)=O)[C@@H](C)O)[C@@H](C)O)[C@@H](C)O)[C@@H](C)O [Peptide P11-18, CH3CO-T-T-R-F-O-W-O-F-E-T-T-NH2] (Ac-TTRF[Orn]W[Orn]FETT-NH2) | above 10 mg·ml^−1
8 | Ac-QQRFEWEFEQQ-NH2 | above 10 mg·ml^−1
